# Drug screen on melanoma cell lines: cell count

From a melanoma drug combination screen (doi:10.1371/journal.pone.0140310); values rounded.

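Human melanoma cells were exposed to a pair of drugs for 72 h in 1,536-well plates and read by automated microscopy after fixing and staining. The read-out is cell count (nuclei) in % of the DMSO control; lower values mean stronger growth inhibition or killing. Every drug was used at one fixed concentration, the higher of two screened. No replicate spread is given; individual values may be noisy.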 Only some of the drugs and lines screened are listed, without regard to their results.

First drug in all entries: nutlin-3, 500 nM, COc1ccc(C2=N[C@@H](c3ccc(Cl)cc3)[C@@H](c3ccc(Cl)cc3)N2C(=O)N2CCNC(=O)C2)c(OC(C)C)c1

For CCCCCCCCCCCC1=C(O)C(=O)C=C(O)C1=O at 6000 nM the values were C32: 81.7; WM451Lu: 131.
For CCN(CC)CCNC(=O)c1c(C)[nH]c(/C=C2\C(=O)Nc3ccc(F)cc32)c1C at 2000 nM the values were C32: 83.5; WM451Lu: 64.2.
For O=C1NC(=O)/C(=C/c2ccc(-c3ccc(F)cc3O)o2)S1 at 5000 nM the values were C32: 77.4; WM451Lu: 101.
For C[C@@H]1CCN(C(=O)CC#N)C[C@@H]1N(C)c1ncnc2[nH]ccc12 at 5000 nM the values were C32: 73.5; WM451Lu: 98.6.
For Cc1nc(Nc2ncc(C(=O)Nc3c(C)cccc3Cl)s2)cc(N2CCN(CCO)CC2)n1 at 20 nM the values were C32: 82.8; WM451Lu: 61.4.
For NCC(=O)Nc1ccc(-n2nc(C(F)(F)F)cc2-c2ccc3c(ccc4ccccc43)c2)cc1 at 5000 nM the values were C32: 85.8; WM451Lu: 96.2.
For COc1cc(Nc2ncc(F)c(Nc3ccc4c(n3)NC(=O)C(C)(C)O4)n2)cc(OC)c1OC at 2000 nM the values were C32: 81.6; WM451Lu: 71.0.
For Cn1cncc1[C@@](N)(c1ccc(Cl)cc1)c1ccc2c(c1)c(-c1cccc(Cl)c1)cc(=O)n2C at 50 nM the values were C32: 74.0; WM451Lu: 72.3.
For Cn1cc(C2=C(c3cn(C4CCN(Cc5ccccn5)CC4)c4ccccc34)C(=O)NC2=O)c2ccccc21 at 4000 nM the values were C32: 95.7; WM451Lu: 85.4.
For Cc1cn(-c2cc(NC(=O)c3ccc(C)c(Nc4nccc(-c5cccnc5)n4)c3)cc(C(F)(F)F)c2)cn1 at 1000 nM the values were C32: 77.2; WM451Lu: 103.
For C[C@]1(c2nc3c(C(N)=O)cccc3[nH]2)CCCN1 at 7000 nM the values were C32: 65.2; WM451Lu: 83.8.
For COc1ccc(-c2ccc3c(N4CCOCC4)nc(N4C[C@@H](C)O[C@@H](C)C4)nc3n2)cc1CO at 100 nM the values were C32: 80.3; WM451Lu: 79.3.
For N.N.[Cl][Pt][Cl] at 8000 nM the values were C32: 88.5; WM451Lu: 94.9.
For CC1(C)CCC(c2ccc(Cl)cc2)=C(CN2CCN(c3ccc(C(=O)NS(=O)(=O)c4ccc(N[C@H](CCN5CCOCC5)CSc5ccccc5)c(S(=O)(=O)C(F)(F)F)c4)cc3)CC2)C1 at 2000 nM the values were C32: 40.5; WM451Lu: 76.7.
For OCc1c[nH]c2ccccc12 at 4000 nM the values were C32: 75.5; WM451Lu: 106.
For C[As](C)SC[C@H](NC(=O)CC[C@H](N)C(=O)O)C(=O)NCC(=O)O at 2000 nM the values were C32: 73.3; WM451Lu: 86.6.
For CO[C@@H]1[C@H](N(C)C(=O)c2ccccc2)C[C@H]2O[C@]1(C)n1c3ccccc3c3c4c(c5c6ccccc6n2c5c31)C(=O)NC4 at 400 nM the values were C32: 59.0; WM451Lu: 90.9.
For CCN(CC)CCCCNc1ncc2cc(-c3cc(OC)cc(OC)c3)c(NC(=O)NC(C)(C)C)nc2n1 at 500 nM the values were C32: 72.9; WM451Lu: 104.
For C=C(c1ccc(C(=O)O)cc1)c1cc2c(cc1C)C(C)(C)CCC2(C)C at 10000 nM the values were C32: 72.9; WM451Lu: 78.8.
For Cn1cc(/C=C2\C(=O)Nc3cccnc32)c2ccccc21 at 2000 nM the values were C32: 79.1; WM451Lu: 107.
For CC(C)C[C@H](NC(=O)[C@H](Cc1ccccc1)NC(=O)c1cnccn1)B(O)O at 5 nM the values were C32: 27.3; WM451Lu: 24.0.
For Oc1nc(-c2ccc(C(F)(F)F)cc2)nc2c1CSCC2 at 10000 nM the values were C32: 83.9; WM451Lu: 124.
For O=C(Nc1cccc(Cl)c1)Nc1ncc(CCNc2ncnc3ccsc23)s1 at 4 nM the values were C32: 65.9; WM451Lu: 67.0.
For CS(=O)(=O)CCNCc1ccc(-c2ccc3ncnc(Nc4ccc(OCc5cccc(F)c5)c(Cl)c4)c3c2)o1 at 4000 nM the values were C32: 91.9; WM451Lu: 112.
For CN(C)S(=O)(=O)c1ccc2c(c1)/C(=C/c1cc3c([nH]1)CCCC3)C(=O)N2 at 2000 nM the values were C32: 92.6; WM451Lu: 117.
For COc1cc(N2CCC(N3CCN(C)CC3)CC2)ccc1Nc1ncc(Cl)c(Nc2ccccc2S(=O)(=O)C(C)C)n1 at 400 nM the values were C32: 60.5; WM451Lu: 73.8.
For O=c1cc(-c2cccc3c2Sc2ccccc2S3)oc(N2CCOCC2)c1 at 5000 nM the values were C32: 68.8; WM451Lu: 90.4.
For COCC[n+]1c2c(n(Cc3cnccn3)c1C)C(=O)c1ccccc1C2=O at 2 nM the values were C32: 93.3; WM451Lu: 20.0.
For O=S(=O)(c1ccccc1)N(CC(F)(F)F)c1ccc(C(O)(C(F)(F)F)C(F)(F)F)cc1 at 7000 nM the values were C32: 81.2; WM451Lu: 110.

The first 3 entries again:

{"partner": "CCCCCCCCCCCC1=C(O)C(=O)C=C(O)C1=O at 6000 nM", "C32": 81.7, "WM451Lu": 131}
{"partner": "CCN(CC)CCNC(=O)c1c(C)[nH]c(/C=C2\\C(=O)Nc3ccc(F)cc32)c1C at 2000 nM", "C32": 83.5, "WM451Lu": 64.2}
{"partner": "O=C1NC(=O)/C(=C/c2ccc(-c3ccc(F)cc3O)o2)S1 at 5000 nM", "C32": 77.4, "WM451Lu": 101}